These are yes or no findings as the source states them, for the method shown. Binding seen in cells or lysates may run through a third protein. Some results given as binding are weak or reduced against the parent protein; the word gives no strength.
Molecular target: Cnx6 (UniProt O22827)
Experiment: split reporter; BiFC with YFP N- and C-terminal fragments, Agrobacterium-mediated transient coexpression with p19 in N. benthamiana leaves; confocal microscopy after 48 h (2-3 days)

B1: Cnx6 (protein, UniProt O22827 1-198)
chain: MSAEEKNLIEILEEGHKVDVVKYIDYVSAPQAGAIATFSGTTRDMFEGKTVLELRYEAYVPMATRCLSSICTTARSTWDIHKIAVAHRLGPVPVGETSVLIAVSSVHRADGLDACKFLIDELKASVPIWKKEVYTNGEIWKENSEFMEKRLELAEKRDSIVKKTVVEEHRRRGCCGSKVRVEEDEEHKDITGDNKSSS
binding: binds

Source: publication PMC7236048
